Small-molecule microarray binding calls

Calls as published in the ROBIN set (doi:10.1002/anie.202211358).

Oligonucleotides screened, 5′ to 3′:
TPP: TPP riboswitch RNA three-way junction, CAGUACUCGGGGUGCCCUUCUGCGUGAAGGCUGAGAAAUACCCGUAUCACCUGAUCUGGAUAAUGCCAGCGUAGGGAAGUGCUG. Hit rate about 0.7% of about 24,000 compounds.
PreQ1: PreQ1 riboswitch RNA pseudoknot, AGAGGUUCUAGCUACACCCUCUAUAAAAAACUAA. From B. subtilis. Hit rate about 0.7% of about 24,000 compounds.
SAM-II: SAM-II riboswitch RNA pseudoknot, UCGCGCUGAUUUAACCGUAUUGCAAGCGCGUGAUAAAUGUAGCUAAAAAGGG. Hit rate about 1% of about 21,000 compounds.

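Each compound is printed as two spots on a slide made to bind it covalently, so it has no test concentration; the read-out is fluorescence of the bound, labelled oligonucleotide. For the PreQ1, TPP and SAM-II riboswitches the laboratory earlier reported (doi:10.1038/s41467-019-09493-3) 1 µM RNA, 2 h, and a rule that included a mean Z-score above 3 (spot signal-to-noise against the whole library), a score well above that on a control array, and duplicate spots agreeing (coefficient of variation under 100). The data file gives only the calls; its cut-offs may differ, and compounds hitting several targets are kept. A missing hit is not proof of no binding, and a hit is not a measured affinity.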 A compound is marked 1 if it was called a hit and 0 if it was screened but was not. This is an unselected part of the compounds tested. A dash means that no call is listed here.

compound,TPP,PreQ1,SAM-II
c1ccc(C2(Cn3ccnc3-c3cc4n(n3)CCNC4)CCOCC2)cc1,0,0,0
Cc1nn2c(NCc3cccnc3)c3c(nc2c1-c1ccccc1)CCCC3,0,0,-
COCc1cc(CNCC(=O)NC2CCCCCCC2)n[nH]1,0,0,0
O=C([C@H]1[C@@H]2CNC[C@@H]21)N1CCN(c2ncccn2)[C@@H]2CS(=O)(=O)C[C@@H]21,0,0,0
CCOC(=O)c1cnc2c(C)cc(Cl)cc2c1NCCCN1CCOCC1,0,0,0
O=C(O)c1cccc(N2C(=O)CC(Nc3ccc(N4CCOCC4)cc3)C2=O)c1 (stereo not drawn),0,0,0
O=c1[nH]cc(NCCO)c(=O)[nH]1,0,0,0
COCCNC(=O)C1CCCN(C2CCN(C(=O)C3(N)CCC3)CC2)C1 (stereo not drawn),0,0,0
CCc1nc2c(c(N(C)Cc3cc(C4CC4)[nH]n3)n1)CCNCC2,0,0,0
Nc1ccc(C(=O)C(=O)c2ccccc2)cc1,0,0,0
C=CCc1ccc(OCCn2c(C(O)CC)nc3ccccc32)c(OC)c1 (stereo not drawn),0,0,-
Cc1cc(NCc2ccc(F)cc2)nc2cc(O)ccc12,0,0,0
Cc1nc2sc(C(=O)N3C(C)CCCC3C)c(N)c2c(C)c1C (stereo not drawn),0,0,0
COc1ccc2c(CNCc3ccccc3F)c(C(=O)O)n(C)c2c1,0,0,-
O=c1oc(-c2ccccc2)c(-c2ccccc2)c2ccccc12,0,0,0
CC(C)[C@H]1CN(Cc2ccc3c(c2)OCCO3)C[C@@H]1NC(=O)CCO,0,0,0
COCc1cc(CNC(=O)[C@H](N)c2ccccc2)n[nH]1,0,0,0
Cc1nc2c(-c3ccccc3)cnn2c(NCCc2ccccc2)c1C,0,0,-
O=C(CCNc1cccc(C(F)(F)F)c1)c1cccs1,0,0,0
CC(=O)c1ccc(Nc2nc3ccc(C)cc3nc2-n2nc(C)cc2C)cc1,0,0,0
COc1ccc(C(N)CC(=O)N2C[C@H]3CC=CC[C@H]3C2)cc1OC (stereo partly drawn),0,0,0
OC(CN1CCCCCC1)CN1c2ccccc2Sc2ccccc21 (stereo not drawn),0,0,0
NC(=O)NC1NC(=O)NC1=O (stereo not drawn),0,0,0
COCCN(Cc1c(C)nn(C)c1C)C(=O)[C@H]1Cc2ccccc2CN1,0,0,0
Cc1ccc(N2C(=O)c3ccccc3C2Nc2ccccc2F)nc1 (stereo not drawn),0,0,0
c1coc(CNCC2OCCc3ccccc32)c1 (stereo not drawn),0,0,0
CCn1ccnc1C1CCCN(C(=O)c2cc(C)c3nc(N)sc3c2)C1 (stereo not drawn),0,0,0
Nc1nc2c(s1)c(=O)[nH]c(=O)n2-c1ccccc1,0,0,0
O=C(NCc1ccccn1)c1nn(-c2ccccc2F)nc1CO,0,0,-
CCN(CC)CCCNc1ncnc2onc(-c3ccc(Cl)cc3)c12,0,0,0
COc1ccc(CNc2nc3ccc(C)cc3cc2-c2noc(C)n2)cc1,0,0,-
O=C1OC(Cc2ccccc2)C(c2ccccc2)C1=O (stereo not drawn),0,0,0
Cc1cccc(Oc2ccccc2NC(=O)N2CCN(C3CCNC3)CC2)c1 (stereo not drawn),0,0,0
Cc1cc(C(=O)N[C@@H]2CCCC[C@H]2O)c(=O)[nH]c1C,0,0,0
CC(C)(C)Nc1nc(C(N)=O)nc(N2CCOCC2)n1,0,0,0
Cc1nc2nc(CN)nn2c(C)c1CCC(=O)NCc1ccc(Cl)cc1,0,0,-
c1coc(CNc2ncnc3sc4c(c23)CCNC4)c1,0,0,0
NC1CCCc2c1cnn2-c1ccccn1 (stereo not drawn),0,0,0
N#Cc1cc2nc(N)sc2cc1C#N,0,0,0
CCOC(=O)N1CCN(c2c(NCCN3CCN(c4ccccc4F)CC3)c(=O)c2=O)CC1,0,0,-
Clc1ccc(/C=C/c2nc(Cl)c(-c3ccc(Cl)cc3)c(Cl)n2)cc1,0,0,0
COc1cc(Cl)cc(OC)c1-c1cccc2c(N)ccnc12,0,0,0
CC(C)c1ccc(CN2C(=O)C3(CCNCC3)Nc3ccccc32)cc1,0,0,0
CO/C1=C\C(C)=C[C@@H](C)[C@@H](O)[C@@H](C)C/C(C)=C\C=C/[C@H](OC)[C@H]([C@@H](C)[C@@H](O)[C@H](C)[C@@]2(O)C[C@@H](O)[C@H](C)[C@@H](C(C)C)O2)OC1=O,0,0,0
N#CC1=C(N)OC2=C(C(=O)CCC2)C1c1c[nH]nc1-c1ccc(F)cc1 (stereo not drawn),0,0,0
COCCOC(=O)C1=C(N)Oc2c(c(=O)oc3ccccc23)C1c1ccncc1 (stereo not drawn),0,0,0
COc1ccc(CN2C(=O)c3cccnc3C2Nc2cc(Cl)ccc2OC)cc1 (stereo not drawn),0,0,0
Cc1noc(C)c1S(=O)(=O)N1CCC(C(=O)N(CCO)Cc2ccccc2)CC1,0,0,0
CCCCCNc1nc(CC)c2c(c1C#N)CC(C)(C)OC2,0,0,0
CC1=CC(C)(C)Nc2ccc(OC(=O)CN3C(=O)CCC3=O)cc21,0,0,0
CC(=CCCC(C)O)CCC1C(C)=CCC2C(C)(C)CCCC12C (stereo not drawn),0,0,0
CC(=O)c1sc(Nc2ccccc2)c(C#N)c1N,0,0,0
COC(=O)C1=C(C)OC(N)=C(C#N)C12C(=O)N(C)c1ccccc12 (stereo not drawn),0,0,0

For reference, 3 entries once more:

compound	TPP	PreQ1	SAM-II
O=C(CCNc1cccc(C(F)(F)F)c1)c1cccs1	0	0	0
Cc1nc2nc(CN)nn2c(C)c1CCC(=O)NCc1ccc(Cl)cc1	0	0	-
COc1cc(Cl)cc(OC)c1-c1cccc2c(N)ccnc12	0	0	0